Results: patent publication US11464879B2, “Cellular targeted active ingredient delivery system” (CELLIS SP. Z O.O. [LTD.], priority 2015, dated 2022)

Assays:
[1] = test system: CD45+ leukocytes (macrophages, monocytes, lymphocytes, granulocytes); experiment: uptake of iron binding protein by CD45+ leukocyte cells; format: cell-based; conditions: cells incubated 1-4 hrs in protein solution (ferritin 0.2 mg/ml; haemoglobin, transferrin 0.1 mg/ml), standard culture conditions
[2] = test system: cancer cells: mouse mammary cancer, colon cancer, canine mammary cancer, human breast, pancreatic, and bladder cancer; experiment: transfer of carrier protein from loaded leukocytes to cancer cells; format: cell-based

B1: ferritins: recombinant mammalian ferritin proteins H and/or L homopolymers; mouse protein of SEQ ID NO: 4 expressed in E. coli (protein)
chain: MTTASPSQVRQNYHQDAEAAINRQINLELYASYVYLSMSCYFDRDDVALKNFAKYFLHQSHEEREHAEKLMKLQNQRGGRIFLQDIKKPDRDDWESGLNAMECALHLEKSVNQSLLELHKLATDKNDPHLCDFIETYYLSEQVKSIKELGDHVTNLRKMGAPEAGMAEYLFDKHTLGHGD
uptake of the protein by cells [1]: very easily uptake | transport of carrier protein to cancer cells ([2]; from loaded granulocytes): very easily transport | transport of carrier protein to cancer cells ([2]; from loaded lymphocytes): very easily transport | specificity of transfer, cancer cells versus non-cancer cells ([2]; from loaded macrophages): much more specific to cancer cells than to non-cancer cells | transport of carrier protein to cancer cells ([2]; from loaded macrophages): very easily transport | transport of carrier protein to cancer cells ([2]; from loaded monocytes): very easily transport
